The record followed here is paper PMC4888081.

Chains of the proteins cited; added tags and fusions are not shown.
UniProt P59178: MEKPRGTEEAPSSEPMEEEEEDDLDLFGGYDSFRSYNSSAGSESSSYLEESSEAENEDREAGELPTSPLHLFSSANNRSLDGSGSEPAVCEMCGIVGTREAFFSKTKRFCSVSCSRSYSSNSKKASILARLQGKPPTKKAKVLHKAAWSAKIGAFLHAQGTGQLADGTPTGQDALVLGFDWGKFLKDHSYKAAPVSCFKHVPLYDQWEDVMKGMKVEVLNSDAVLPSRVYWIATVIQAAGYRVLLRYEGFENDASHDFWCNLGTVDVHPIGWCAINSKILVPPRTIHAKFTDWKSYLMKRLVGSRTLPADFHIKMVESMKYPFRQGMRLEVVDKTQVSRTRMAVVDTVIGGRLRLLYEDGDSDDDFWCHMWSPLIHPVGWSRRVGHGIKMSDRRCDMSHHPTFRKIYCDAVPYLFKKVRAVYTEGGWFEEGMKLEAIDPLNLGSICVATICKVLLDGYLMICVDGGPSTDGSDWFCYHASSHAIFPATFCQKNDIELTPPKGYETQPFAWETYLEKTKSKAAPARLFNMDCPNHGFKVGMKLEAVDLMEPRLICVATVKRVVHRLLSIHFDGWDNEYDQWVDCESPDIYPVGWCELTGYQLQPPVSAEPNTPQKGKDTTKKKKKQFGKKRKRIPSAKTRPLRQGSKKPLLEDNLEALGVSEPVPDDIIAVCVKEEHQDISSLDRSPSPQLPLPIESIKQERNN
UniProt Q9CQJ4: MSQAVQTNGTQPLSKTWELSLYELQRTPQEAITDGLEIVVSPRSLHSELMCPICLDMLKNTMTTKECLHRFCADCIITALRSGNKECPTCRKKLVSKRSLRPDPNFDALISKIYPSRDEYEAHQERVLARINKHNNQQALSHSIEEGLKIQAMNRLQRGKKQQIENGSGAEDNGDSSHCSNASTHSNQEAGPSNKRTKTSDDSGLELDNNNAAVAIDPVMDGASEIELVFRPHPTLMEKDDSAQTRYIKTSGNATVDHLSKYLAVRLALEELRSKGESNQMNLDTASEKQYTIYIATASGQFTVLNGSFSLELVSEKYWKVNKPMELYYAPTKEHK

Results are given in words; binding and its absence hold for the method and conditions named. In cells and extracts the contact can be indirect. Some results given as binding are weak or reduced against the parent protein; the word gives no strength. Tags and fused reporters may be left off the sequences shown.

The experiment concerns the target T1, HA-Pcgf6 (polycomb group ring finger 6) (UniProt Q99NA9).
T1 sequence: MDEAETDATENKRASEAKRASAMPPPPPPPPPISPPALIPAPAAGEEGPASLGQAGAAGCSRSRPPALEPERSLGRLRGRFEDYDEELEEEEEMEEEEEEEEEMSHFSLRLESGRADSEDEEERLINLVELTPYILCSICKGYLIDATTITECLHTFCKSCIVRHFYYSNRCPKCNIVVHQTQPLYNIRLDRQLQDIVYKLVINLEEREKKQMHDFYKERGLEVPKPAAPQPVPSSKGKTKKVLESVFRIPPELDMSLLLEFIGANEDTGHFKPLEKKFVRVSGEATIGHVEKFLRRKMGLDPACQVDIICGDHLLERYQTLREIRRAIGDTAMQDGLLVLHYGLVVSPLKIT
Kind of experiment: co-IP; co-immunoprecipitation with Pcgf6 (Figure S4A,B); details not in the main text.

For the substance L3mbtl2 (from UniProt P59178 1-703), the binding entry is on record as “binds”.
As to Rnf2 (from UniProt Q9CQJ4 1-336), the binding entry is recorded as “binds”.
